Test results published in US20230047825A1, “ANTIMICROBIAL PEPTIDES” (priority 2019, published 2023).

Legend:
[1] = tested on: HEK293; type: cell-based, human
Procedure: Cytotoxicity assay. HeLa and HEK293 cell lines were purchased from ECACC and cultured in Eagle's Minimum Essential Media (EMEM) containing glutamine, supplemented with 10% FBS and 1× non-essential amino acids (NEAA) at 37° C., 10% CO2. Cytotoxicity was measured by incubating starter cultures of cells for 24 hours in a 96 well plate, gently removing the supernatant and replacing it with dilutions of peptides and controls, incubating for a further 24 hours and then staining of the cells with the second generation tetrazolium dye, XTT. […]

[2] = tested on: A549; type: cell-based
[3] = MIC in RPMI (value in parentheses)

Structure (SMILES)	Selectivity Index HEK293/EMRSA-15 (EC50 divided by the MIC) ([1]; MIC in Mueller-Hinton broth)	Selectivity Index HEK293/P. aeruginosa RP73 (tobramycin) ([1]; MIC in Mueller-Hinton broth)	Selectivity Index HEK293/EMRSA-15 (EC50 divided by the MIC) [1, 3]	Selectivity Index HEK293/P. aeruginosa RP73 (tobramycin) [1, 3]	Selectivity Index A549/EMRSA-15 (EC50 divided by the MIC) ([2]; MIC in Mueller-Hinton broth)	Selectivity Index A549/EMRSA-15 (EC50 divided by the MIC) [2, 3]
CC(C)C[C@@H](NC(=O)[C@@H](Cc1ccc(O)cc1)NC(=O)[C@@H](Cc1c[nH]cn1)NC(=O)[C@H](NC(=O)[C@@H](CC(C)C)NC(=O)[C@@H](C)NC(=O)[C@@H](C)NC(=O)[C@@H](CCCNC(=N)N)NC(=O)CNC(=O)[C@H](NC(=O)[C@@H](Cc1c[nH]cn1)NC(=O)[C@@H](CCCNC(=N)N)NC(=O)CNC(=O)[C@H](NC(=O)[C@@H](Cc1c[nH]cn1)NC(=O)[C@@H](C)NC(=O)[C@@H](C)NC(=O)[C@@H](CCCNC(=N)N)NC(=O)[C@@H](CCCNC(=N)N)NC(=O)[C@@H](Cc1ccccc1)NC(=O)[C@@H](Cc1ccccc1)NC(=O)[C@@H](CO)NC(=O)CNC(=O)[C@@H](Cc1c[nH]c2ccccc12)NC(=O)CN)C(C)C)C(C)C)[C@H](C)O)C(N)=O [D-pleurocidin-KR] (HELM PEPTIDE1{G.[dW].G.[dS].[dF].[dF].[dR].[dR].[dA].[dA].[dH].[dV].G.[dR].[dH].[dV].G.[dR].[dA].[dA].[dL].[dT].[dH].[dY].[dL].[am]}$$$$V2.0; N-terminus assumed)	18.2	12.8	72.8	4.6	28.3	113.0
CC(C)C[C@H](NC(=O)[C@H](Cc1ccc(O)cc1)NC(=O)[C@H](Cc1c[nH]cn1)NC(=O)[C@@H](NC(=O)[C@H](CC(C)C)NC(=O)[C@H](C)NC(=O)[C@H](C)NC(=O)[C@H](CCCCN)NC(=O)CNC(=O)[C@H](C)NC(=O)[C@H](Cc1c[nH]cn1)NC(=O)[C@H](CCCCN)NC(=O)CNC(=O)[C@H](C)NC(=O)[C@H](Cc1c[nH]cn1)NC(=O)[C@H](C)NC(=O)[C@H](C)NC(=O)[C@H](CCCCN)NC(=O)[C@H](CCCCN)NC(=O)[C@H](Cc1ccccc1)NC(=O)[C@H](Cc1ccccc1)NC(=O)[C@H](CO)NC(=O)CNC(=O)[C@H](Cc1c[nH]c2ccccc12)NC(=O)CN)[C@@H](C)O)C(N)=O [Pleurocidin-VA] (H-GWGSFFKKAAHAGKHAGKAALTHYL-NH2; N-terminus assumed)	6.25		12.5			
CC(C)C[C@@H](NC(=O)[C@@H](Cc1ccc(O)cc1)NC(=O)[C@@H](Cc1c[nH]cn1)NC(=O)[C@H](NC(=O)[C@@H](CC(C)C)NC(=O)[C@@H](C)NC(=O)[C@@H](C)NC(=O)[C@@H](CCCCN)NC(=O)CNC(=O)[C@@H](C)NC(=O)[C@@H](Cc1c[nH]cn1)NC(=O)[C@@H](CCCCN)NC(=O)CNC(=O)[C@@H](C)NC(=O)[C@@H](Cc1c[nH]cn1)NC(=O)[C@@H](C)NC(=O)[C@@H](C)NC(=O)[C@@H](CCCCN)NC(=O)[C@@H](CCCCN)NC(=O)[C@@H](Cc1ccccc1)NC(=O)[C@@H](Cc1ccccc1)NC(=O)[C@@H](CO)NC(=O)CNC(=O)[C@@H](Cc1c[nH]c2ccccc12)NC(=O)CN)[C@H](C)O)C(N)=O [D-pleurocidin-VA] (HELM PEPTIDE1{G.[dW].G.[dS].[dF].[dF].[dK].[dK].[dA].[dA].[dH].[dA].G.[dK].[dH].[dA].G.[dK].[dA].[dA].[dL].[dT].[dH].[dY].[dL].[am]}$$$$V2.0; N-terminus assumed)	6.8		27.2		> 7.8	> 31.2

Like-named read-outs stand apart in the source and are kept apart here. Where a SMILES comes first, the peptide text is derived from it.
